The list shows only some results of the screen, not a fair sample: it is rich in T/C values a quarter to a half above the control, in often repeated tests (any T/C) and in doses without a T/C. Other doses and runs of a compound stand elsewhere. T/C is the treated group as % of the vehicle group. Some entries give survivors of the animals treated and no T/C: the source holds a T/C of zero for them, seemingly a mark for toxic or unscored doses. Some doses without a T/C left all or most animals alive at the check, yet need not have been tolerated: the source hardly ever lists a survival T/C far under the control, and the zero likely stands for such cases as well. Counts of survivors are from the toxicity check (mostly the fifth day) where no day follows; animals may have died later. Schedule codes are those of the source, read here as Q, the interval in days (D) or hours (H), X, the number of doses. Some entries hold several experiments; their values stand side by side, smallest first. For survival time, the PubChem record calls one and a half times the control and up active, and a quarter to a half above the control has no call in these data; cut-offs in other NCI protocols can differ. Some T/C values carry the count of animals alive at the toxicity check (mostly the fifth day); where none is given, no animal had died by that day.
System: CD2F1 mice, L1210 leukemia ip, survival T/C
Assay: NCI In Vivo Anticancer Drug Screen. Data for tumor model L1210 Leukemia (intraperitoneal) in CD2F1 (CDF1) mice
Conditions: higher T/C = longer survival
Summary of the method: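 Tumor-bearing mice (transplanted tumor) were split into treated and vehicle control groups, and the measured endpoint of each treated group was divided by that of its vehicle controls.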

[1] = T/C endpoint: mean survival time, dose: 100.0 mg/kg/injection, schedule: Q01DX009 (ip), vehicle: saline with Tween-80
[2] = T/C endpoint: mean survival time, dose: 200.0 mg/kg/injection, schedule: Q01DX009 (ip), vehicle: saline with Tween-80
[3] = T/C endpoint: mean survival time, dose: 400.0 mg/kg/injection, schedule: Q01DX009 (ip), vehicle: saline with Tween-80
[4] = T/C endpoint: mean survival time, dose: 400.0 mg/kg/injection, schedule: Q04DX003 (ip), vehicle: saline with Tween-80
[5] = T/C endpoint: mean survival time, dose: 200.0 mg/kg/injection, schedule: Q04DX003 (ip), vehicle: saline with Tween-80
[6] = T/C endpoint: mean survival time, dose: 100.0 mg/kg/injection, schedule: Q04DX002 (ip), vehicle: saline with Tween-80
[7] = T/C endpoint: mean survival time, dose: 200.0 mg/kg/injection, schedule: Q01DX001 (ip), vehicle: saline with Tween-80
[8] = T/C endpoint: mean survival time, dose: 400.0 mg/kg/injection, schedule: Q01DX001 (ip), vehicle: saline with Tween-80
[9] = T/C endpoint: mean survival time, dose: 100.0 mg/kg/injection, schedule: Q04DX003 (ip), vehicle: saline with Tween-80

CC1(C)C2CCC1(CS(=O)(=O)O)C(=O)C2.[Ag] (stereo unspecified)
survivor count (T/C endpoint: mean survival time, dose: 200.0 mg/kg/injection, schedule: Q04DX003 (ip), vehicle: acetone): 2 of 6 | survivor count (T/C endpoint: mean survival time, dose: 400.0 mg/kg/injection, schedule: Q04DX003 (ip), vehicle: acetone): 0 of 6

NC(=S)c1cccc(OCCOc2cccc3ccccc23)c1
survivor count [1]: 6 of 6 | survivor count [2]: 2 of 6 | survivor count [3]: 0 of 6

CCCCN(CCCC)CC(C)(O)c1cc(-c2ccc(Cl)cc2)nc2c(C)cc(C)cc12 (stereo unspecified)
survivor count [4]: 6 of 6

CCCCC(CC)CNCC(CC)CCCC (stereo unspecified)
survivor count [5]: 0 of 6

COc1ccc(C=C2C(=O)C=CC2=O)cc1O
survivor count (T/C endpoint: mean survival time, dose: 50.0 mg/kg/injection, schedule: Q04DX002 (ip), vehicle: saline with Tween-80): 0 of 3 | survivor count [6]: 0 of 3 | survivor count (T/C endpoint: mean survival time, dose: 200.0 mg/kg/injection, schedule: Q04DX002 (ip), vehicle: saline with Tween-80): 0 of 3

CC(C(C(=O)O)S(=O)(=O)O)C(C(=O)O)S(=O)(=O)O (stereo unspecified)
survivor count (T/C endpoint: mean survival time, dose: 100.0 mg/kg/injection, schedule: Q01DX001 (ip), vehicle: other): 0 of 3 | survivor count (T/C endpoint: mean survival time, dose: 200.0 mg/kg/injection, schedule: Q01DX001 (ip), vehicle: other): 0 of 3 | survivor count (T/C endpoint: mean survival time, dose: 400.0 mg/kg/injection, schedule: Q01DX001 (ip), vehicle: other): 0 of 3

CC1=CCC(C(C)(C)c2ccc(O)cc2)CC1 (stereo unspecified)
survivor count [3]: 3 of 6

CCCCCCCCCCCCCC[N+](C)(C)CC#CC[N+](C)(C)CCCCCCCCCCCCCC
survivor count [6]: 0 of 3

CCOc1ccc(NC(=S)N(C)C)cc1
survivor count [4]: 3 of 6

O=NN(CCCl)C(=O)NCCO
T/C (T/C endpoint: mean survival time, dose: 5.0 mg/kg/injection, schedule: Q01DX001 (ip), vehicle: water): 138 % of control | T/C (T/C endpoint: mean survival time, dose: 12.5 mg/kg/injection, schedule: Q01DX009 (ip), vehicle: water): 127 % of control | survivor count (T/C endpoint: mean survival time, dose: 25.0 mg/kg/injection, schedule: Q01DX009 (ip), vehicle: water): 6 of 6 | survivor count (T/C endpoint: mean survival time, dose: 40.0 mg/kg/injection, schedule: Q01DX001 (ip), vehicle: water): 6 of 6 | survivor count (T/C endpoint: mean survival time, dose: 50.0 mg/kg/injection, schedule: Q01DX009 (ip), vehicle: water): 3 of 6 and 5 of 6 | survivor count (T/C endpoint: mean survival time, dose: 100.0 mg/kg/injection, schedule: Q01DX009 (ip), vehicle: water): 3 of 6 | survivor count (T/C endpoint: mean survival time, dose: 200.0 mg/kg/injection, schedule: Q01DX009 (ip), vehicle: water): 0 of 6 | survivor count (T/C endpoint: median survival time, dose: 24.0 mg/kg/injection, schedule: Q01DX009 (ip), vehicle: water): 6 of 6 | survivor count (T/C endpoint: median survival time, dose: 25.0 mg/kg/injection, schedule: Q01DX009 (ip), vehicle: water): 5 of 6 | survivor count (T/C endpoint: median survival time, dose: 50.0 mg/kg/injection, schedule: Q01DX009 (ip), vehicle: water): 4 of 6

Cn1cc[n+](C)c1C(c1ccccc1)N1CCCCC1 (stereo unspecified)
survivor count (T/C endpoint: mean survival time, dose: 100.0 mg/kg/injection, schedule: Q01DX001 (ip), vehicle: saline with Tween-80): 0 of 6 | survivor count [7]: 0 of 6 | survivor count [8]: 0 of 6

CN(N=O)C(N)=O
T/C (T/C endpoint: mean survival time, dose: 5.0 mg/kg/injection, schedule: Q01DX007 (ip), vehicle: saline): 141 % of control | T/C (T/C endpoint: mean survival time, dose: 5.0 mg/kg/injection, schedule: Q01DX009 (ip), vehicle: saline): 141 % of control | T/C (T/C endpoint: mean survival time, dose: 10.0 mg/kg/injection, schedule: Q03DX003 (ip), vehicle: saline): 126 % of control | T/C (T/C endpoint: mean survival time, dose: 10.0 mg/kg/injection, schedule: Q04DX003 (ip), vehicle: saline): 125 % of control | T/C (T/C endpoint: mean survival time, dose: 20.0 mg/kg/injection, schedule: Q01DX009 (ip), vehicle: saline): 133 % of control [5 of 6 alive] | T/C (T/C endpoint: mean survival time, dose: 20.0 mg/kg/injection, schedule: Q04DX003 (ip), vehicle: saline): 142 % of control | T/C (T/C endpoint: median survival time, dose: 3.0 mg/kg/injection, schedule: Q01DX009 (ip), vehicle: saline + alcohol): 130 % of control | T/C (T/C endpoint: median survival time, dose: 6.0 mg/kg/injection, schedule: Q01DX009 (ip), vehicle: saline + alcohol): 148 % of control | T/C (T/C endpoint: median survival time, dose: 21.6 mg/kg/injection, schedule: Q04DX003 (ip), vehicle: saline + alcohol): 130 % of control | T/C (T/C endpoint: median survival time, dose: 24.0 mg/kg/injection, schedule: Q04DX003 (ip), vehicle: saline): 130 % of control | T/C (T/C endpoint: median survival time, dose: 25.0 mg/kg/injection, schedule: Q01DX009 (ip), vehicle: saline + alcohol): 148 % of control [5 of 6 alive]

O=C(OCC1OC(n2nc(SCc3ccccc3)c(=O)[nH]c2=O)C(OC(=O)c2ccccc2)C1OC(=O)c1ccccc1)c1ccccc1 (stereo unspecified)
survivor count (T/C endpoint: mean survival time, dose: 200.0 mg/kg/injection, schedule: Q01DX005 (ip), vehicle: distilled water + Tween-80): 6 of 6

COc1cc2c(cc1O)NC(OC)C1CC(O)CN1C2=O (stereo unspecified)
T/C (T/C endpoint: median survival time, dose: 12.8 mg/kg/injection, schedule: Q01DX005 (ip), vehicle: DMSO): 134 % of control | survivor count (T/C endpoint: median survival time, dose: 19.2 mg/kg/injection, schedule: Q01DX005 (ip), vehicle: DMSO): 1 of 6

CN(C)C=Nc1ccc(Cl)c(Cl)c1
survivor count (T/C endpoint: mean survival time, dose: 100.0 mg/kg/injection, schedule: Q04DX003 (ip), vehicle: saline): 4 of 6

O=C1C=C(C2OC(CI)C(O)C2O)C(=O)N1 (stereo unspecified)
survivor count (T/C endpoint: mean survival time, dose: 50.0 mg/kg/injection, schedule: Q01DX005 (ip), vehicle: water): 0 of 6 | survivor count (T/C endpoint: mean survival time, dose: 100.0 mg/kg/injection, schedule: Q01DX005 (ip), vehicle: water): 0 of 6 | survivor count (T/C endpoint: mean survival time, dose: 200.0 mg/kg/injection, schedule: Q01DX005 (ip), vehicle: water): 0 of 6

COc1ccc2c(c1OC(C)=O)-c1cc(OC(C)=O)cc3c1C(C2)N(C(=O)CCl)CC3 (stereo unspecified)
survivor count (T/C endpoint: mean survival time, dose: 200.0 mg/kg/injection, schedule: Q04DX003 (ip), vehicle: DMSO): 2 of 6 | survivor count (T/C endpoint: mean survival time, dose: 400.0 mg/kg/injection, schedule: Q04DX003 (ip), vehicle: DMSO): 1 of 6

COC(=O)c1ccc(C2CCC(OC(c3ccccc3)c3ccccc3)CC2)cc1 (stereo unspecified)
survivor count [9]: 6 of 6

c1ccc(CCC[P+](c2ccccc2)(c2ccccc2)c2ccccc2)cc1
survivor count (T/C endpoint: mean survival time, dose: 20.0 mg/kg/injection, schedule: Q01DX009 (ip), vehicle: saline with Tween-80): 0 of 6 | survivor count (T/C endpoint: mean survival time, dose: 40.0 mg/kg/injection, schedule: Q01DX009 (ip), vehicle: saline with Tween-80): 0 of 6 | survivor count (T/C endpoint: mean survival time, dose: 80.0 mg/kg/injection, schedule: Q01DX009 (ip), vehicle: saline with Tween-80): 0 of 6

O=c1[nH]c2ccccc2nc1Cl
survivor count [6]: 3 of 3

CC(=O)Nc1ccc(OCCOC(=O)Nc2ccc(Cl)cc2C)cc1
survivor count [1]: 3 of 3

CN(CC(=O)C(C)(C)C)C1CCCCC1
survivor count (T/C endpoint: mean survival time, dose: 200.0 mg/kg/injection, schedule: Q04DX003 (ip), vehicle: saline): 0 of 4 | survivor count (T/C endpoint: mean survival time, dose: 400.0 mg/kg/injection, schedule: Q04DX003 (ip), vehicle: saline): 0 of 4

C[CH2][Pb]([CH2]C)([CH2]C)[O]C(=O)C=C1CCCC1
survivor count (T/C endpoint: mean survival time, dose: 20.0 mg/kg/injection, schedule: Q04DX003 (ip), vehicle: saline with Tween-80): 0 of 6

ClI(Cl)c1ccccc1
survivor count [2]: 2 of 6 | survivor count [3]: 0 of 6

O=C(CC1(Cl)C(F)(F)C(F)(F)C1(F)F)c1ccccc1
survivor count [7]: 0 of 6 | survivor count [8]: 0 of 6

O=S1CCCCO1 (stereo unspecified)
survivor count (T/C endpoint: mean survival time, dose: 300.0 mg/kg/injection, schedule: Q04DX003 (ip), vehicle: saline): 1 of 6

O=C1OC(c2ccccc2)(c2ccccc2)c2cccc3cccc1c23
survivor count [5]: 6 of 6

CCN(CC)CCC(=O)c1ccccc1
survivor count (T/C endpoint: mean survival time, dose: 100.0 mg/kg/injection, schedule: Q01DX009 (ip), vehicle: suspension in saline): 1 of 6

CC1CCC(NC2=NCCO2)C(C)C1 (stereo unspecified)
survivor count [9]: 3 of 6

Reference: PubChem BioAssay AID256 (DTP/NCI, 2004)
